The values that follow come from PMC3084728.

The chains behind the UniProt entries cited, without tags or fusion partners. Where a name states a change or a piece, a line headed by the entry shows the natural chain unless it says otherwise. A line that says so, or that is headed by a name, gives the form on record, which may keep a tag or linker. Residues count along the entry.
UniProt O00629: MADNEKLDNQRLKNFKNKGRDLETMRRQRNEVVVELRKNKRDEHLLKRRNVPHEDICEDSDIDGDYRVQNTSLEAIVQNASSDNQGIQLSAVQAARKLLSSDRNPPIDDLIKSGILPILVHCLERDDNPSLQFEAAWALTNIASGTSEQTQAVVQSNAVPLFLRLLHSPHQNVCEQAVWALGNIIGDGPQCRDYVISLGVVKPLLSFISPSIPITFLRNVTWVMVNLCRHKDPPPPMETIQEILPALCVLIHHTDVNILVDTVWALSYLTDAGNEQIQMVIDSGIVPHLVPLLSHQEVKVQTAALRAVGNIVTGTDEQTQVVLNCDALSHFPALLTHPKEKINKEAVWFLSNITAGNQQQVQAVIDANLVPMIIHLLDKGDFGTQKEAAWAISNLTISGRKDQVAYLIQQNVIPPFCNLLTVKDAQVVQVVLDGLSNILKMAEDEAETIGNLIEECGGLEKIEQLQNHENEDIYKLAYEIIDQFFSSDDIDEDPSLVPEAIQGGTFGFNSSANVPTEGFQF
UniProt Q14974, residues 1-462: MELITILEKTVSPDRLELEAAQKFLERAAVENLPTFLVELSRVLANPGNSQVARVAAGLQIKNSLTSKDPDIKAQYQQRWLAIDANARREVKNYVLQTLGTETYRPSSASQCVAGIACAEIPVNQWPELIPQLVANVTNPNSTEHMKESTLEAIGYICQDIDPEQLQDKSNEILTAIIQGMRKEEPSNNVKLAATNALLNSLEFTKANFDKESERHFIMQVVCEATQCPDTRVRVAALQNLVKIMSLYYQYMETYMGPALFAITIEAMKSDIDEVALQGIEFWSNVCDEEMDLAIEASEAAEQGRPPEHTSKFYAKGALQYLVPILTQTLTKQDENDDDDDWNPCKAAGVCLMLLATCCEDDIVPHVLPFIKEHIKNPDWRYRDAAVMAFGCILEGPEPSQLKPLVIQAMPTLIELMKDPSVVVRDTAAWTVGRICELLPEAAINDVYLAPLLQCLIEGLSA
UniProt P52294: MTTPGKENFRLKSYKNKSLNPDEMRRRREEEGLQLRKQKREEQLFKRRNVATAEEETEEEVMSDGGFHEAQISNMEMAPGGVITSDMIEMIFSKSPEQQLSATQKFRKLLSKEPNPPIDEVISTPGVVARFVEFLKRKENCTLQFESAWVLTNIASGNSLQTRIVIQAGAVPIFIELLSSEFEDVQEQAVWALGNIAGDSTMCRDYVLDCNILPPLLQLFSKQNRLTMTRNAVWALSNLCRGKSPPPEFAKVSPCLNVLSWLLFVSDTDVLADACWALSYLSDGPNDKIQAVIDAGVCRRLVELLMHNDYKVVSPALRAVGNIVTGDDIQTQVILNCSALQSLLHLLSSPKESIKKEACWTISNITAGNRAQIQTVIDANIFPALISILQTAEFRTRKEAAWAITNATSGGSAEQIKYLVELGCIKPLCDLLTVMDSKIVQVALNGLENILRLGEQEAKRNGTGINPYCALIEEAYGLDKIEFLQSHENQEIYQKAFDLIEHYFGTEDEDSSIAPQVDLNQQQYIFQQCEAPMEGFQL
FLAG-tagged C-terminal truncation of KSHV LANA containing the 329 aa N-terminal domain (Q9QR71, residues 1-329): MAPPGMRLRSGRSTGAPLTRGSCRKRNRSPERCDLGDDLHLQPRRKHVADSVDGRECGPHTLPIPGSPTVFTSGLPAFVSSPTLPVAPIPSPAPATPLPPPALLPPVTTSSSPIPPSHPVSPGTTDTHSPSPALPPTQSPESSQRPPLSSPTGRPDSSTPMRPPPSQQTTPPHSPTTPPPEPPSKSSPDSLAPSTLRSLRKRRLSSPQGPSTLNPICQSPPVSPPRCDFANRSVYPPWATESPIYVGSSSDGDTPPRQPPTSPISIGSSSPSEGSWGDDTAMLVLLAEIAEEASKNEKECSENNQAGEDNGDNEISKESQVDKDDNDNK
N-terminal 51 amino acids of KSHV LANA fused to EGFP (Q9QR71, residues 1-51): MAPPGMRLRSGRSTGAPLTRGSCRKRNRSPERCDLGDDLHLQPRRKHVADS
N-terminal 24 amino acids of KSHV LANA fused to 1×EGFP (Q9QR71, residues 1-24): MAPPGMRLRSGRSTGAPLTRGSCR

Results are given in words; binding and its absence hold for the method and conditions named. Binding seen in cells or lysates may run through a third protein. Some results given as binding are weak or reduced against the parent protein; the word gives no strength.

The target in assay [1] is GST-tagged importin α3 (UniProt O00629). As to the kind of experiment: pull-down; RanQ69L-GTP competition: GST or GST-importins on glutathione-sepharose beads incubated with Cos7 lysates 2 hours at 4°C, washed, suspended in PBS, then incubated 30 minutes at room temperature with 6×His-RanQ69L-GTP (increasing amounts, up to 80 µM) or PBS; bound protein detected by Western blot with anti-EGFP or anti-FLAG; only the target purified.

The target in assay [2] is GST-tagged deletion mutant of importin β1, importin β1Δ_((1–462)) (UniProt Q14974). Described as above.
Assay [3] deals with GST-tagged importin α7 (UniProt O60684). As to the kind of experiment: pull-down; GST or GST-tagged importins immobilised on glutathione-sepharose beads (equivalent amounts), incubated with lysates of transfected Cos7 cells (1% NP40 lysis buffer: 50 mM Tris, 150 mM NaCl, 5% glycerol) for 2 hours at 4°C, washed; bound EGFP fusions detected by Western blot with …; only the target purified. For orientation: Immunoblotting shows a protein as a band on a membrane.

The target of assay [4] is GST-tagged importin α3 (UniProt O00629). Described as above.
Assay [5] addresses GST-tagged deletion mutant of importin β1, importin β1Δ_((1–462)) (UniProt Q14974). The assay is described as above.
The target in assay [6] is GST-tagged importin α5 (UniProt P52294). The description is as above.

Take “FLAG-tagged C-terminal truncation of KSHV LANA containing the 329 aa N-terminal domain (from UniProt Q9QR71 1-329) (domain or fragment)”: the binding result was “binds” in assay [1] and “binds weakly” in assay [2].
For the substance “N-terminal 24 amino acids of KSHV LANA fused to 1×EGFP (from UniProt Q9QR71 1-24) (domain or fragment)”, in assay [2], the binding entry was “binds”.
On to “N-terminal 51 amino acids of KSHV LANA fused to EGFP (from UniProt Q9QR71 1-51) (domain or fragment)”, for which the binding result in assay [1], in assay [3], in assay [4], in assay [5] and in assay [6] was “binds” throughout.
